# ± gives the standard deviation of the averaged measurements. Most values lie at the floor of the assay. Slopes are relative: functional sequences can read slightly below zero.
# Test system: Saccharomyces cerevisiae PS128 hsf1 delta, HSF1(1-493) fusion
# Experiment: growth estimate (transactivation domain function in HSF1 fusion, heat-shock survival) (a.u. (slope of normalised read count over time)); higher = stronger growth at 37°C, i.e. more transactivation activity
# Conditions: library: random library
row,Substance,growth estimate
1,LVVAGWSRIASK,< -0.25
2,HREVELDCLNLSPRGMGLAE,< -0.25
3,AIAASLHC,< -0.25
4,SRYRDNQFYAIGAVKLGIIS,< -0.25
5,AGDDKTCRGPRRPSVCMQSC,< -0.25
6,CEIDLERSDTSLGKECLARS,< -0.25
7,AQTTNDRP,< -0.25
8,PVTNGVKGGLRVMRIDYRDS,< -0.25
9,VSSKLYPSQTIPICVHEYGH,< -0.25
10,FVAVSDTGHLPEL,< -0.25
11,DFWAS,< -0.25
12,VQNVEARTAGASMSSVADNL,< -0.25
13,LKAHPWADLCVDRAPFCHII,< -0.25
14,VWATDNQPLAGRFVRLSTLV,< -0.25
15,LLVTSGPSYAWSAL,< -0.25
16,THDKGDSARSALDGAIDTGS,< -0.25
17,CSHPVSVNEYPGPRVNVGAP,< -0.25
18,LFVGRVCPDRAVRGVSPIPR,< -0.25
19,RDWFGYRML,< -0.25
20,RLVSDKGVHQMVSDRTNHKA,< -0.25
21,CKYLSVATGNRSLGQGNCMS,< -0.25
22,MLSHGTAQDV,< -0.25
23,NPTVSNALFFIAGG,< -0.25
24,FKVNAKCREVVTDYA,< -0.25
25,RSTYPREF,< -0.25

row,Substance,growth estimate
1,RRYIMTVPPGDICAVQVRSA,-0.245
2,QLVCSYPGR,< -0.25
3,GNLGIV,< -0.25
4,VSQRSRFKLNETTRVW,< -0.25
5,LVALSRPTQPSCP,< -0.25
6,CPCAVRHYTATHLQFLNAAV,< -0.25
7,RPGRKVSRARPFSSRSPSTV,-0.238
8,PILSENLGDGQVDRYFSSAN,< -0.25
9,LCSGESIVSSL,< -0.25
10,LVR,-0.248 ± 0.003
11,RVSFRIMRVGGGERDADREL,< -0.25
12,PNGV,< -0.25
13,CMTLRNS,< -0.25
14,SVSPAQYLTPNDASNS,< -0.25
15,ETDMMHRRAYSCGRDPSTQR,< -0.25
16,LSSA,< -0.25
17,TTVDHGIQMKQRGRSSTFAR,< -0.25
18,VTPLAELMAPLAGGIADSVA,-0.246
19,CGSLVISNGLSVLLRCCAIL,< -0.25
20,GRVEG,< -0.25
21,SGDCLLTPRFTVGSTRRRMS,-0.236
22,KVYSEVVLVHLDLMWISGAA,< -0.25
23,RSGHHSSVTSNILVIVDT,< -0.25
24,LRKVEIYGLARLRQHAVTWW,< -0.25
25,GDKSGTGVYHDTESVPALWE,< -0.25

row,Substance,growth estimate
1,WSATLIV,< -0.25
2,QLCLWQLIVLAQRSPRLRQI,< -0.25
3,YTSEFPNPSH,< -0.25
4,CGRVIAGTPVRPR,< -0.25
5,GPRGTVGWGSDVRRPWSRSH,< -0.25
6,EVCRPSRRDGRTSFST,< -0.25
7,FVRRKA,< -0.25
8,MPGQLLRGRALSQPRKAGFY,< -0.25
9,QARSRSAWVGSFCATRGAAF,< -0.25
10,TVSQSHGYPCETQVGLRPLP,-0.243
11,SVGCAMACAPGRKDRYHTRT,< -0.25
12,WIGRALC,< -0.25
13,RHTDGLVRLLLRSAGPSSCS,< -0.25
14,VGPYFLRPVLTGSSVCMECG,< -0.25
15,DIFHGAKLAEKSTTTCHISV,< -0.25
16,EYKASCYPRR,< -0.25
17,LFFRGLRIGSGPEPRASSP,-0.231
18,DLSNNSFLKIQGLDPLRL,< -0.25
19,CSEASPLLCCVYSLGLLKRE,< -0.25
20,SMICN,< -0.25
21,WTQLLTGLRMLRHPRAASLA,-0.246
22,SQW,< -0.25
23,HRSLN,< -0.25
24,RIPYLRFIL,< -0.25
25,REYERSGALVSVTRLIHLDW,< -0.25

row,Substance,growth estimate
1,RVVEQHERT,< -0.25
2,ASVNTFPYGCATETDALSIV,< -0.25
3,VVWQA,< -0.25
4,LQDHCWNCLT,-0.229
5,ESSVLY,< -0.25
6,CGTLGNTN,< -0.25
7,RIYDGTPRAFPAGTQLRLTL,< -0.25
8,DAD,< -0.25
9,RLGG,< -0.25
10,SSESAAPTNNIKLYKGSP,< -0.25
11,RTLASGLAPKGSGTRTLMWR,< -0.25
12,KDSRSELERKFRGLPIVLLA,< -0.25
13,TIEVGQCNREADSLCARHST,< -0.25
14,QYARRQNGSEPSLSVGPTTR,< -0.25
15,DLAARSGKYG,-0.217
16,KSRAKRSLVWQIVNGSFVVS,-0.25
17,IPSPYLGRLQLREF,-0.166
18,RMLGDYSVGAAL,< -0.25
19,LPTGPTELLVAD,< -0.25
20,QWARGCIARVRSLVQGCGGH,< -0.25
21,QSNSSSHHPS,< -0.25
22,AIVMPFKMYQHGATLELLQG,< -0.25
23,YSPVAVAPADVWVA,< -0.25
24,AFFSYYYMGGENH,< -0.25
25,QVEG,< -0.25

row,Substance,growth estimate
1,ARGALIVPLIRLLGIRAGGA,< -0.25
2,ERPEDTRTS,< -0.25
3,TMGGNIKGLSDLNGIVWYTE,< -0.25
4,CPERKC,< -0.25
5,HRVTPVIAPTDRTMEC,< -0.25
6,YNRCPRLAVESRELFSLGSV,< -0.25
7,LCWYRKST,< -0.25
8,PTR,< -0.25
9,QSPVVRQIHKCVCVYRARVT,< -0.25
10,CREFYAVRRLCD,< -0.25
11,GQGLSKNSRRYHTPSKKAM,< -0.25
12,CQDTPHRGSGGGAGSVGNQF,< -0.25
13,GLSRLSSEIAMPIVTAKRGS,< -0.25
14,ERYDRPIVPRGLHTGNHCLA,< -0.25
15,RRTLFVLFSHDIGAITRKCS,< -0.25
16,PGVRKDARQDSTRAIHRPAG,< -0.25
17,TGGVIYFALGEVLL,< -0.25
18,GTSLSHHASCSRKLRHRSPR,< -0.25
19,VFFEREQSD,< -0.25
20,EVDPPE,< -0.25
21,SAWGASSAGWSHLRR,< -0.25
22,LYPLRSLSKISDKA,< -0.25
23,VHDCGVDPCGSRGA,< -0.25
24,HSAENSRHKVHSLGRRFTAD,< -0.25
25,GPAHRKGASLKTGNTATTVR,< -0.25

row,Substance,growth estimate
1,HFTVCI,< -0.25
2,SRVLSSHAPNMEPTELGPRM,< -0.25
3,VWDQIHVLVLVVLVDPDG,< -0.25
4,RIPETRGLVAVEVRD,< -0.25
5,FESWKS,< -0.25
6,LGLLSHTWTTINQGHVNKWA,< -0.25
7,SLFD,< -0.25
8,IFCICR,< -0.25
9,GCRRLKCNQAKKR,< -0.25
10,SHHRIRNEAFGNAIWVLSCA,< -0.25
11,ENVMHGASSFDTAIQRLC,< -0.25
12,IKVY,< -0.25
13,KSSTWAQVT,< -0.25
14,ASVIFRLQSAPGLLGI,< -0.25
15,TRHSAGPCVDRDLPGESKRG,< -0.25
16,RFQFAKLRISVWALCQSKQQ,< -0.25
17,HHHVATQRTFLLGLAYAEPP,< -0.25
18,RKSVVESGTGFIWSSG,< -0.25
19,VGLIDFAARSFRTACMGIQF,< -0.25
20,SCCNPRDRWERH,< -0.25
21,CNLTVESFS,< -0.25
22,DPH,< -0.25
23,DLSGKK,< -0.25
24,DYTARGPDGCYHFEQLFNSA,< -0.25
25,MPRCF,< -0.25

row,Substance,growth estimate
1,LSTKARQQRLDVHISRSAET,< -0.25
2,LVEAACKARGNRDPSKVA,< -0.25
3,LVVGPPI,< -0.25
4,ATLRHQGGASFQGRPI,< -0.25
5,RVLRLVGELSTTVAA,< -0.25
6,ASRAFAGPLLTD,< -0.25
7,QSRYVPGIS,< -0.25
8,YPPSLGTWRIGCPLLPNLTS,< -0.25
9,RYPVVRDHFFKR,< -0.25
10,GREILSQVRRYPITWPWGRR,< -0.25
11,GKIVQVSSRSSEHQ,< -0.25
12,KSVD,< -0.25
13,KGSVNRIVAMSGCVQLRQRP,< -0.25
14,KENRSRRCDS,< -0.25
15,KLSVNHRGSLTF,< -0.25
16,HSATVQVRSPRIGKTTIS,< -0.25
17,TGGHASGWQHESTETPIRDI,< -0.25
18,TRLKINNIPCSRLWAGHEVH,< -0.25
19,LGLIRLAFLQ,< -0.25
20,AVTERKNAYRLQRLVTSGSV,< -0.25
21,LRYYCP,< -0.25
22,IYCPWERTI,< -0.25
23,KPCGTSPCVITERGVISPGS,< -0.25
24,RTIRCGSFHSKELRCLYKHR,< -0.25
25,PTTLSCSGTAL,< -0.25

# Part of the list above, set out differently:
row	Substance	growth estimate
7	QSRYVPGIS	< -0.25
13	KGSVNRIVAMSGCVQLRQRP	< -0.25

# Remaining list, next part.

row,Substance,growth estimate
1,VASCIINGF,-0.246
2,YFWSRSCGAISPLNYLVGLQ,< -0.25
3,RQSGYVERFPPSFPGETSGA,< -0.25
4,PRASICYAISTIRGNLKKSL,< -0.25
5,QRAYLAVNFCAAWIKAMQ,< -0.25
6,PNTLRARGYGFV,< -0.25
7,LSITSLAV,< -0.25
8,SSLLCPSWLRGVRSRST,< -0.25
9,PNNACCGISEAGLSKS,< -0.25
10,IMGRLYLAYGPRL,< -0.25
11,SVHAPEN,< -0.25
12,TTVEGTDEVPIRNFHGH,< -0.25
13,PATRWTGAEECILP,< -0.25
14,NEYIISWLQRSVDLG,< -0.25
15,ATGALSAGG,< -0.25
16,VILQSL,< -0.25
17,LVSCG,< -0.25
18,WVIVVTVLRSEILRGLYSSE,< -0.25
19,IIRVTVGLLIDRPCGR,< -0.25
20,DVAARTHD,< -0.25
21,GCGWFHSWNPVPPDSTDRRG,< -0.25
22,NMSGPVLLRGFIDRISLWCH,< -0.25
23,TIWSLPSCKYSRLIQGAEIE,< -0.25
24,HSSRSRRGNSLCLFRSNTPR,< -0.25

# Five entries drawn at random from those above, as already listed:
row,Substance,growth estimate
21,GCGWFHSWNPVPPDSTDRRG,< -0.25
13,PATRWTGAEECILP,< -0.25
9,PNNACCGISEAGLSKS,< -0.25
3,RQSGYVERFPPSFPGETSGA,< -0.25
18,WVIVVTVLRSEILRGLYSSE,< -0.25

# Source: the supplement of paper PMC5949888
